# Assay results: PubChem BioAssay AID2685 (National Center for Advancing Translational Sciences (NCATS), 2010)
# About 2,100 (0.66%) of roughly 320,000 compounds were called active. This list was built around the results that the source calls inconclusive (neither active nor inactive); the mix of calls is not that of the screen. Calls follow the shape of the dose curve; as a rule, active = well fitted inhibition curve with a large enough effect in the signal ratio, with a control signal flat (not every such curve was filed as active); inconclusive = small, poorly fitted or top-dose-only effect, or effect the other way, or a change in a side signal; inactive = flat fitted curve, though single readings scatter; the % refers to the signal ratio. Potencies of inconclusive entries are doubtful fits and often do not repeat.
# Assay: qHTS Assay for Lipid Storage Modulators in Drosophila S3 Cells
# Settings: BODIPY lipid droplet fluorescence, 18-24 h, cells fed with added oleic acid; lipid storage change, negative = inhibition: at 46.1 µM (top of the series) unless noted
# Outline: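 Drosophila S3 cells got compounds at several concentrations plus oleic acid (400 uM solution). Laser-scanning cytometry with 488 nm excitation read lipid droplets at 500-530 nm and cells at 575-640 nm. Percent activity was relative to 20 uM Triacsin C.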
# % is scaled to controls: 0 for no effect and ±100 for the full control effect; potency is read from the fitted curve at half-maximal effect.
SMILES,"lipid storage change, negative = inhibition",Potency
CCOC(=O)N1CCC(N2CCN(S(=O)(=O)c3ccc(NC(C)=O)cc3)CC2)CC1,inconclusive: 195%,–
N#Cc1cc(C(=O)c2ccccc2OCC(=O)Nc2ccccc2Cl)cn(C2CCCCC2)c1=O,inconclusive: -0.0167%,–
Fc1ccccc1N1CCN(Cc2cccnc2)CC1,inconclusive: 12.5%,–
CCc1nnc(-n2nc(C)cc2-c2ccccc2)n1N,inconclusive: -27.2%,–
N#Cc1ccc(Cl)cc1NC(=O)COC(=O)c1ccc2c(c1)OCCO2,–,"inconclusive: 3.26 µM [activator, partial curve]"
O=C1c2cccc(OCC(=O)N3CCCc4ccccc43)c2CCN1Cc1ccc(Br)cc1,–,"inconclusive: 29.1 µM [falling, single point]"
CCC[n+]1c(C)sc2c(OC)ccc(OC)c21,inconclusive: 9.73%,–
Oc1ccccc1C=NC1CCCCC1N=Cc1ccccc1O (configuration not stated),inconclusive: -7.51%,–
N#Cc1c(-c2cccnc2)c2c([nH]c1=S)CCCC2,inconclusive: 26.1%,–
CCOC(=O)N1CCN(C(=O)C2CCN(CC3CCCCC3)CC2)CC1,inconclusive: 1.96%,–
Cc1cc(C)nc(/N=C(\N)Nc2cccc(OCc3ccccc3)c2)n1,inconclusive: -3.03%,–
Cc1c(C(=O)OC2CCCCC2)[nH]c2c1C(=O)CC(C)(C)C2,–,"inconclusive: 2.06 µM [activator, partial curve]"
CC(=O)Nc1ccc(NS(=O)(=O)c2cc(-c3cnc(C4CC4)o3)ccc2C)cc1,inconclusive: 44.7%,–
COc1ccccc1CNC(=O)c1ccc(Br)o1,inconclusive: 16.7%,–
Cc1cc(C(=O)N2CCCC(C(=O)c3cc(F)ccc3F)C2)c(C)o1 (configuration not stated),inconclusive: -9.78%,–
CC(C)N(C)C1CCN(S(=O)(=O)c2ccc(-c3ccc(=O)[nH]n3)s2)CC1,–,"inconclusive: 32.6 µM [falling, single point]"
COc1ccc(NC(=S)NNC(=O)COc2ccc(Cl)cc2Cl)cc1,inconclusive: -29.2%,–
CCC(CC)C1=NN2C(=N)/C(=C/c3ccc(OC(=O)c4ccco4)cc3)C(=O)N=C2S1,inconclusive: -17.8%,–
Cc1cccc(NC(=O)c2ccc(Cn3cc(C(F)(F)F)ccc3=O)cc2)c1,inconclusive: 7.14%,–
CC(NCc1ccc2c(c1)OCO2)c1ccccc1 (configuration not stated),inconclusive: 21.2%,–
CCOc1cc(C(=O)OCc2ccc([N+](=O)[O-])cc2)ccc1OCC(=O)N1CCOCC1,inconclusive: 27.6%,–

SMILES,"lipid storage change, negative = inhibition",Potency
O=C(NCc1cccs1)c1noc2c1CCCC2,inconclusive: 36.3%,–
COc1ccc(S(=O)(=O)N[C@@H](CSCc2ccccc2)C(=O)O)cc1,inconclusive: -8.08%,–
COc1ccccc1NC(C)C(=O)N/N=C/c1cccs1 (configuration not stated),inconclusive: -4.53%,–
COc1ccc(NC(=O)COC(=O)c2ccc(OC)c(S(=O)(=O)N3CCCC3)c2)cc1OC,–,"inconclusive: 6.51 µM [rising, partial curve]"
COc1cc(/C=C(\C#N)C(=O)N2CCCCC2)ccc1O,inconclusive: 14.1%,–
Cc1cccc(C)c1NC(=O)COC(=O)Cc1ccsc1,inconclusive: 6.16%,–
O=C(OCCCc1cc2ccccc2c(=O)o1)c1ccccc1C(F)(F)F,inconclusive: -6.79%,–
O=C(COC(=O)c1ccc(Cl)s1)c1ccc[nH]1,inconclusive: -21.9%,–
CC(C)(c1ccccc1)c1ccc(OCC2CO2)cc1 (configuration not stated),inconclusive: 116%,–
CC1CCC(C(C)C)C(OC(=O)Cn2c(-c3ccc(Br)cc3)[n+](C)c3ccccc32)C1 (configuration not stated),–,"inconclusive: 0.206 µM [cytotoxic, full curve, poor fit]"
Cc1oc2c(c(C)cc3oc(=O)c(CC(=O)NCC(=O)NCC(=O)O)c(C)c32)c1C,–,"inconclusive: 9.2 µM [falling, partial curve]"
O=C(Cc1ccc(NS(=O)(=O)c2cccc(C(F)(F)F)c2)cc1)NCCN1CCOCC1,inconclusive,–
COc1ccc(-c2nc3c(-c4ccc(F)cc4)cnn3cc2C)cc1F,inconclusive: 20.4%,–
O=C(CSc1nc2ccccc2c(=O)n1Cc1ccco1)c1ccc(F)cc1,inconclusive: -13.1%,–
CCC(=O)N1CCc2cc(Br)cc(S(=O)(=O)NCc3ccccc3OC)c21,–,"inconclusive: 5.17 µM [activator, single point]"
COCc1c(C(=O)OCC(=O)c2c(N)n(CC(C)C)c(=O)n(C)c2=O)oc2ccccc12,inconclusive: -25%,–
CCn1nc(NS(=O)(=O)c2ccc([N+](=O)[O-])cc2)c2cc3ccc(C)cc3nc21,inconclusive: -53.5%,–
COc1ccccc1-c1nc(SCc2ccccn2)n[nH]1,–,"inconclusive: 1.46 µM [rising, single point]"
S=c1[nH]cc(-c2ccc(Cl)cc2)n1-c1ccccc1,–,"inconclusive: 4.61 µM [activator, full curve, poor fit]"
Cc1ccc(O)c(CNc2cccc(C)n2)c1,inconclusive: 1.06%,–
CCOC(=O)c1c(NC(=O)c2c(Br)cnn2CC)sc(C)c1C,inconclusive: 14.8%,–

SMILES,"lipid storage change, negative = inhibition",Potency
Cc1ccc(NC(=O)c2ocnc2C)cc1Cl,inconclusive: -36.3%,–
CCOC(=O)N1CCC(NC(=O)C(NS(=O)(=O)c2ccc3c(c2)CCN3C(=O)CC)C(C)C)CC1 (configuration not stated),inconclusive: -20.1%,–
Cc1ccc(NC(=O)NCC2CC2(Cl)Cl)cc1 (configuration not stated),–,"inconclusive: 29.1 µM [activator, single point]"
Cc1nnc(SC(C)C(=O)Nc2ccc3ccccc3c2)n1C (configuration not stated),–,"inconclusive: 13 µM [activator, partial curve, poor fit]"
Nc1c(Cl)cc(Cl)cc1C(=O)OCC(=O)N1CCCC1=O,inconclusive,–
COc1ccc(Cn2nc(-c3ccccc3)c(N3CCCCC3)cc2=O)cc1,inconclusive: 14%,–
COc1cc([N+](=O)[O-])ccc1NC(=O)CSc1ccccn1,inconclusive: 5.84%,–
COc1ccc(CNC(=O)c2ccc(NC(=O)CC3SC(N4CCCCC4)=NC3=O)cc2)cc1 (configuration not stated),inconclusive: 8.13%,–
CCn1c(-c2nn(-c3ccc(C)cc3)ccc2=O)n[nH]c1=S,inconclusive: 7.27%,–
CN(CC(=O)Nc1cccc(F)c1)C(=O)CC1CCCC1,inconclusive,–
Cc1ccc(C(=O)Nc2ccc3c(c2)C(=O)N(CC2CCCO2)C3=O)cc1 (configuration not stated),inconclusive: -84.1%,–
O=C(COC(=O)CNC(=O)c1ccccc1)Nc1nc(-c2ccccc2)cs1,inconclusive: 13.8%,–
CCN(CC)S(=O)(=O)c1ccc(OC)c(NC(=O)CC2CCCC2)c1,inconclusive: -116%,–
O=C(NC1CCCN(CCc2ccccc2)C1)C1CCCC1 (configuration not stated),inactive: -3.29%,–
COc1cc(/C=C/C(=O)OCC(=O)N2c3ccccc3CC2C)cc(OC)c1OC (configuration not stated),inconclusive: -32.3%,–
Cc1noc(C)c1S(=O)(=O)N1CCC2(CC1)OCCO2,inconclusive: -5.38%,–
c1ccc(-n2ncc3c(NCC4CCCO4)ncnc32)cc1 (configuration not stated),inconclusive: 2.2%,–
CC(=O)c1ccc(N2Cc3ccccc3C3(CCOCC3)C2=N)cc1,inconclusive: 124%,–
O=C1NCCN1C(=O)N(c1ccccc1)c1ccccc1,inconclusive: -3.74%,–
CC1C(=O)Nc2ccc(S(=O)(=O)N3CCN(c4cccc(Cl)c4)CC3)cc2NC1=O (configuration not stated),inconclusive: -35.3%,–
C=CCN1C(c2cccc(C(F)(F)F)c2)=CS/C1=C(/C#N)c1nnc(N2CCOCC2)n1-c1ccccc1,inconclusive: -1.67%,–

SMILES,"lipid storage change, negative = inhibition",Potency
COC(=O)c1cccc(NC(=O)c2ccc[n+]([O-])c2)c1,inconclusive: -15.4%,–
Nn1c(SCC(=O)N2CCCCCC2)nnc1-c1ccncc1,–,"inconclusive: 3.26 µM [falling, single point]"
CCOC(=O)C1=C(CNC(C)(C)CC(C)(C)C)NC(=O)NC1c1cccc([N+](=O)[O-])c1 (configuration not stated),inconclusive: 23%,–
Cc1cc(N2CCN(C)CC2)nc2ccc(NC(=O)c3cccnc3Cl)cc12,inconclusive: 52.2%,–
CCN(CC)c1ccc(C(=O)NNC(=O)c2ccc3c(=O)n4c(nc3c2)CCC4)cc1,inconclusive: 10.7%,–
O=C(Cn1c(=O)oc2ccccc21)Nc1nc(-c2ccc(Br)cc2)cs1,inconclusive: -44.5%,–
O=C(NC1CCCC1)C(c1cccs1)N(C(=O)c1ccco1)c1ccc2c(c1)OCCO2 (configuration not stated),inconclusive: -22%,–
CC(=O)Nc1ccc(/C(C)=N/NC(=O)c2ccccc2Cl)cc1,–,"inconclusive: 3.66 µM [activator, partial curve]"
Cn1c(N)c(-c2nc3cccnc3n2C)sc1=S,inconclusive: 18.5%,–
CCOc1cc(CNC(C)(C)C)ccc1OCC(=O)Nc1cccc(C(F)(F)F)c1,inconclusive: -6.33%,–
CCOc1ccc(CCNC(=O)CSc2n[nH]c(N)n2)cc1OCC,inconclusive: 6.98%,–
CN1CCN(C(=O)CCCN2C(=O)/C(=C/c3ccccc3)SC2=S)CC1,–,active: 8.2 µM
O=C(NCCCN1CCOCC1)c1cc(-c2cccs2)on1,inconclusive: 6.92% [cytotoxic],–
O=C(Nc1ccc(Cl)c(C(F)(F)F)c1)C1CCCN(S(=O)(=O)c2cnc[nH]2)C1 (configuration not stated),inconclusive: 68.8%,–
COc1ccc(NC(=S)NCCN2CCC(C)CC2)cc1,inconclusive: 2.59%,–
CN(C)c1ccc(N=Cc2ccco2)cc1,inconclusive: 64.3%,–
COc1ccc(S(C)(=O)=O)cc1S(C)(=O)=O,inconclusive: -65.5%,–
CC(OC(=O)CN1C(=O)c2ccccc2C1=O)C(=O)N(C)c1ccccc1 (configuration not stated),inconclusive,–
CCOC(=O)c1cc(C(C)=O)c(=O)[nH]c1C,inconclusive: -17.2%,–

# An excerpt of these results, with tabs.
SMILES	lipid storage change, negative = inhibition	Potency
Cc1noc(C)c1S(=O)(=O)N1CCC2(CC1)OCCO2	inconclusive: -5.38%	–
c1ccc(-n2ncc3c(NCC4CCCO4)ncnc32)cc1 (configuration not stated)	inconclusive: 2.2%	–
CC(=O)c1ccc(N2Cc3ccccc3C3(CCOCC3)C2=N)cc1	inconclusive: 124%	–
O=C1NCCN1C(=O)N(c1ccccc1)c1ccccc1	inconclusive: -3.74%	–
CC1C(=O)Nc2ccc(S(=O)(=O)N3CCN(c4cccc(Cl)c4)CC3)cc2NC1=O (configuration not stated)	inconclusive: -35.3%	–
C=CCN1C(c2cccc(C(F)(F)F)c2)=CS/C1=C(/C#N)c1nnc(N2CCOCC2)n1-c1ccccc1	inconclusive: -1.67%	–
COC(=O)c1cccc(NC(=O)c2ccc[n+]([O-])c2)c1	inconclusive: -15.4%	–
Nn1c(SCC(=O)N2CCCCCC2)nnc1-c1ccncc1	–	inconclusive: 3.26 µM [falling, single point]
CCOC(=O)C1=C(CNC(C)(C)CC(C)(C)C)NC(=O)NC1c1cccc([N+](=O)[O-])c1 (configuration not stated)	inconclusive: 23%	–
Cc1cc(N2CCN(C)CC2)nc2ccc(NC(=O)c3cccnc3Cl)cc12	inconclusive: 52.2%	–
CCN(CC)c1ccc(C(=O)NNC(=O)c2ccc3c(=O)n4c(nc3c2)CCC4)cc1	inconclusive: 10.7%	–
O=C(Cn1c(=O)oc2ccccc21)Nc1nc(-c2ccc(Br)cc2)cs1	inconclusive: -44.5%	–
O=C(NC1CCCC1)C(c1cccs1)N(C(=O)c1ccco1)c1ccc2c(c1)OCCO2 (configuration not stated)	inconclusive: -22%	–
CC(=O)Nc1ccc(/C(C)=N/NC(=O)c2ccccc2Cl)cc1	–	inconclusive: 3.66 µM [activator, partial curve]
Cn1c(N)c(-c2nc3cccnc3n2C)sc1=S	inconclusive: 18.5%	–
CCOc1cc(CNC(C)(C)C)ccc1OCC(=O)Nc1cccc(C(F)(F)F)c1	inconclusive: -6.33%	–
CCOc1ccc(CCNC(=O)CSc2n[nH]c(N)n2)cc1OCC	inconclusive: 6.98%	–
CN1CCN(C(=O)CCCN2C(=O)/C(=C/c3ccccc3)SC2=S)CC1	–	active: 8.2 µM
O=C(NCCCN1CCOCC1)c1cc(-c2cccs2)on1	inconclusive: 6.92% [cytotoxic]	–
O=C(Nc1ccc(Cl)c(C(F)(F)F)c1)C1CCCN(S(=O)(=O)c2cnc[nH]2)C1 (configuration not stated)	inconclusive: 68.8%	–
COc1ccc(NC(=S)NCCN2CCC(C)CC2)cc1	inconclusive: 2.59%	–
CN(C)c1ccc(N=Cc2ccco2)cc1	inconclusive: 64.3%	–
COc1ccc(S(C)(=O)=O)cc1S(C)(=O)=O	inconclusive: -65.5%	–
CC(OC(=O)CN1C(=O)c2ccccc2C1=O)C(=O)N(C)c1ccccc1 (configuration not stated)	inconclusive	–
CCOC(=O)c1cc(C(C)=O)c(=O)[nH]c1C	inconclusive: -17.2%	–
